PubChem BioAssay AID504784 | Drosophila RNAi Screening Center | 2011

Aim: 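Search for regulators of lipid droplet storage in oleate-fed fly cells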 (primary screen)
Cells: Drosophila Kc167 embryonic cells
Knock-down reagent: long dsRNA against Drosophila genes, about 250 ng dsRNA per well
Time to read-out: 4 days
Treatment: cells fed 400 µM oleic acid bound to BSA
Measurement: 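Microscope images give a droplet-to-nucleus area ratio, taken as log and converted to a screen-wide B-score; higher values mean greater lipid storage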
Scale: droplet/nuclear area B-score: higher = more stored lipid (overstorage)
In all, the deposit lists about 17,000 reagents; this is a random part of those with a known target gene and a result. 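Each column is one replicate's B-score; the combined score over replicates was not deposited, so single values may mislead.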 A plus sign joins genes that one reagent is predicted to hit.

no.	gene	DRSC id	droplet/nuclear area B-score, replicate 1	droplet/nuclear area B-score, replicate 2	droplet/nuclear area B-score, replicate 3
1	Tpc1	DRSC15614	0.682	1.98	
2	Tpc1	DRSC16074	-0.42	4.37	
3	CG31230	DRSC22130	-0.0266	-1.05	
4	Dlic	DRSC19824	1.42	-0.223	-0.737
5	Ugt36F1	DRSC02601	1.03	0.481	
6	ppk	DRSC03595	1.75	-0.286	
7	CG32536 + CG32537	DRSC20074	-0.112	-0.39	-0.326
8	Doa	DRSC13892	0.433	-0.028	
9	Doa	DRSC13893	0.677	-0.107	
10	Doa	DRSC13896	0.693	-0.292	
11	Doa	DRSC13897	2.29	-0.503	
12	Doa	DRSC16650	-0.674	-0.688	
13	crol	DRSC03514	0.15	0.0111	
14	crol	DRSC21348	2.74	-0.00394	
15	CG14410	DRSC19596	0.56	0.513	
16	frtz	DRSC00512	1.99	-0.0282	
17	fy	DRSC03533	0.0887	0.749	
18	CDase	DRSC14932	-1.53	-1.37	
19	Saysd1	DRSC14664	0.7	-0.109	
20	CG1544	DRSC15036	0.236	1.36	
21	RYa-R	DRSC16757	0.217		
22	Syt12	DRSC19359	1.25	0.869	-0.692
23	CG14125	DRSC10129	2.31	0.435	
24	spaw	DRSC06824	0.06	1.09	
25	Pnn	DRSC16415	1.04	-0.151	
26	Wdr37	DRSC14500	-0.191	0.091	

Continued, starting with the last 5 of the part before.
no.	gene	DRSC id	droplet/nuclear area B-score, replicate 1	droplet/nuclear area B-score, replicate 2	droplet/nuclear area B-score, replicate 3
22	Syt12	DRSC19359	1.25	0.869	-0.692
23	CG14125	DRSC10129	2.31	0.435	
24	spaw	DRSC06824	0.06	1.09	
25	Pnn	DRSC16415	1.04	-0.151	
26	Wdr37	DRSC14500	-0.191	0.091	
27	CG13577	DRSC04213	0.951	-0.388	
28	chas	DRSC19508	-0.313	-1.43	
29	chas	DRSC19509	-1.05	-1.41	
30	RYBP	DRSC04117	-1.7	-1.11	
31	AP-2mu	DRSC14090	0.539	1.21	
32	CG11600	DRSC14332	0.0865	1.3	
33	CG33262	DRSC22893	0.528	0.203	
34	Nsf2	DRSC22104	0.352	-1.51	
35	CG6195	DRSC15989	-0.721	0.322	
36	Grip84	DRSC20248	-1.07	0.185	
37	Spps	DRSC15856	0.411	-3.06	
38	Spps	DRSC23206	0.586	0.0217	
39	betaTub97EF	DRSC15666	0.205	0.668	
40	betaTub97EF	DRSC15667	-0.271	0.718	
41	betaTub97EF	DRSC15668	-0.0474	-0.792	
42	CG34168	DRSC01938	-1.85	-1.84	
43	Ttd14	DRSC06632	-3.27	1.48	
44	Ttd14	DRSC06942	1.56	-0.188	
45	CG11123	DRSC06040	0.681	1.47	
46	CG30371	DRSC06835	0.0449	-0.054	
47	Rtnl2	DRSC12609	0.429	-0.618	
48	Rtnl2	DRSC21655	-0.116	-0.358	
49	CG4945	DRSC06904	0.635	0.348	
50	intr	DRSC14528	-1.61		
51	PGAP2	DRSC00632	1.56	0.726	
52	CG12204	DRSC19442	0.321	1.25	
53	rictor	DRSC20071	0.931	4.19	
54	CG31522	DRSC12005	0.454	0.339	
55	RhoU	DRSC17803	-0.0466	-1.79	0.684
56	RhoU	DRSC17804	0.0597	-0.777	-0.66
57	RhoU	DRSC22159	-0.913	-0.887	
58	RhoU	DRSC22396	-0.361	-0.695	
